The other results are listed elsewhere or left out.
How the values were obtained:
Experiment in all cases: log2 fold change, soluble protein after heating vs DMSO (PISA); higher = thermal stabilisation; K562 lysate, 10 uM; active = over 0.2 and 3.5 SD of the protein, either way, in both replicates (recomputed)
[1] = compound: CS(=O)(=O)CCNCc1ccc(-c2ccc3ncnc(Nc4ccc(OCc5cccc(F)c5)c(Cl)c4)c3c2)o1 [lapatinib]
Summary of the method: (§1)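 Following dounce homogenisation of K562 pellets in PBS pH 7.4 with 1 mM MgCl2, crude extract at 1 mg/mL protein was incubated for 30 min with 10 μM compound. Aliquots were then heated for 3 min over 48°C-58°C and pooled, NP-40 was added to 0.5% at 4°C, and soluble protein was recovered as the supernatant at 21,000xg for 90 min. Channel-sum-equalised TMTpro 16plex LC-MS/MS quantified this protein. Each value, from duplicates, is a log-two fold change in thermal stability relative to solvent controls.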

Sequences of proteins named here, by UniProt entry; tags and fusion partners are left off. A change or cut given only in a name is not applied to a line headed by its entry.
UniProt Q14789: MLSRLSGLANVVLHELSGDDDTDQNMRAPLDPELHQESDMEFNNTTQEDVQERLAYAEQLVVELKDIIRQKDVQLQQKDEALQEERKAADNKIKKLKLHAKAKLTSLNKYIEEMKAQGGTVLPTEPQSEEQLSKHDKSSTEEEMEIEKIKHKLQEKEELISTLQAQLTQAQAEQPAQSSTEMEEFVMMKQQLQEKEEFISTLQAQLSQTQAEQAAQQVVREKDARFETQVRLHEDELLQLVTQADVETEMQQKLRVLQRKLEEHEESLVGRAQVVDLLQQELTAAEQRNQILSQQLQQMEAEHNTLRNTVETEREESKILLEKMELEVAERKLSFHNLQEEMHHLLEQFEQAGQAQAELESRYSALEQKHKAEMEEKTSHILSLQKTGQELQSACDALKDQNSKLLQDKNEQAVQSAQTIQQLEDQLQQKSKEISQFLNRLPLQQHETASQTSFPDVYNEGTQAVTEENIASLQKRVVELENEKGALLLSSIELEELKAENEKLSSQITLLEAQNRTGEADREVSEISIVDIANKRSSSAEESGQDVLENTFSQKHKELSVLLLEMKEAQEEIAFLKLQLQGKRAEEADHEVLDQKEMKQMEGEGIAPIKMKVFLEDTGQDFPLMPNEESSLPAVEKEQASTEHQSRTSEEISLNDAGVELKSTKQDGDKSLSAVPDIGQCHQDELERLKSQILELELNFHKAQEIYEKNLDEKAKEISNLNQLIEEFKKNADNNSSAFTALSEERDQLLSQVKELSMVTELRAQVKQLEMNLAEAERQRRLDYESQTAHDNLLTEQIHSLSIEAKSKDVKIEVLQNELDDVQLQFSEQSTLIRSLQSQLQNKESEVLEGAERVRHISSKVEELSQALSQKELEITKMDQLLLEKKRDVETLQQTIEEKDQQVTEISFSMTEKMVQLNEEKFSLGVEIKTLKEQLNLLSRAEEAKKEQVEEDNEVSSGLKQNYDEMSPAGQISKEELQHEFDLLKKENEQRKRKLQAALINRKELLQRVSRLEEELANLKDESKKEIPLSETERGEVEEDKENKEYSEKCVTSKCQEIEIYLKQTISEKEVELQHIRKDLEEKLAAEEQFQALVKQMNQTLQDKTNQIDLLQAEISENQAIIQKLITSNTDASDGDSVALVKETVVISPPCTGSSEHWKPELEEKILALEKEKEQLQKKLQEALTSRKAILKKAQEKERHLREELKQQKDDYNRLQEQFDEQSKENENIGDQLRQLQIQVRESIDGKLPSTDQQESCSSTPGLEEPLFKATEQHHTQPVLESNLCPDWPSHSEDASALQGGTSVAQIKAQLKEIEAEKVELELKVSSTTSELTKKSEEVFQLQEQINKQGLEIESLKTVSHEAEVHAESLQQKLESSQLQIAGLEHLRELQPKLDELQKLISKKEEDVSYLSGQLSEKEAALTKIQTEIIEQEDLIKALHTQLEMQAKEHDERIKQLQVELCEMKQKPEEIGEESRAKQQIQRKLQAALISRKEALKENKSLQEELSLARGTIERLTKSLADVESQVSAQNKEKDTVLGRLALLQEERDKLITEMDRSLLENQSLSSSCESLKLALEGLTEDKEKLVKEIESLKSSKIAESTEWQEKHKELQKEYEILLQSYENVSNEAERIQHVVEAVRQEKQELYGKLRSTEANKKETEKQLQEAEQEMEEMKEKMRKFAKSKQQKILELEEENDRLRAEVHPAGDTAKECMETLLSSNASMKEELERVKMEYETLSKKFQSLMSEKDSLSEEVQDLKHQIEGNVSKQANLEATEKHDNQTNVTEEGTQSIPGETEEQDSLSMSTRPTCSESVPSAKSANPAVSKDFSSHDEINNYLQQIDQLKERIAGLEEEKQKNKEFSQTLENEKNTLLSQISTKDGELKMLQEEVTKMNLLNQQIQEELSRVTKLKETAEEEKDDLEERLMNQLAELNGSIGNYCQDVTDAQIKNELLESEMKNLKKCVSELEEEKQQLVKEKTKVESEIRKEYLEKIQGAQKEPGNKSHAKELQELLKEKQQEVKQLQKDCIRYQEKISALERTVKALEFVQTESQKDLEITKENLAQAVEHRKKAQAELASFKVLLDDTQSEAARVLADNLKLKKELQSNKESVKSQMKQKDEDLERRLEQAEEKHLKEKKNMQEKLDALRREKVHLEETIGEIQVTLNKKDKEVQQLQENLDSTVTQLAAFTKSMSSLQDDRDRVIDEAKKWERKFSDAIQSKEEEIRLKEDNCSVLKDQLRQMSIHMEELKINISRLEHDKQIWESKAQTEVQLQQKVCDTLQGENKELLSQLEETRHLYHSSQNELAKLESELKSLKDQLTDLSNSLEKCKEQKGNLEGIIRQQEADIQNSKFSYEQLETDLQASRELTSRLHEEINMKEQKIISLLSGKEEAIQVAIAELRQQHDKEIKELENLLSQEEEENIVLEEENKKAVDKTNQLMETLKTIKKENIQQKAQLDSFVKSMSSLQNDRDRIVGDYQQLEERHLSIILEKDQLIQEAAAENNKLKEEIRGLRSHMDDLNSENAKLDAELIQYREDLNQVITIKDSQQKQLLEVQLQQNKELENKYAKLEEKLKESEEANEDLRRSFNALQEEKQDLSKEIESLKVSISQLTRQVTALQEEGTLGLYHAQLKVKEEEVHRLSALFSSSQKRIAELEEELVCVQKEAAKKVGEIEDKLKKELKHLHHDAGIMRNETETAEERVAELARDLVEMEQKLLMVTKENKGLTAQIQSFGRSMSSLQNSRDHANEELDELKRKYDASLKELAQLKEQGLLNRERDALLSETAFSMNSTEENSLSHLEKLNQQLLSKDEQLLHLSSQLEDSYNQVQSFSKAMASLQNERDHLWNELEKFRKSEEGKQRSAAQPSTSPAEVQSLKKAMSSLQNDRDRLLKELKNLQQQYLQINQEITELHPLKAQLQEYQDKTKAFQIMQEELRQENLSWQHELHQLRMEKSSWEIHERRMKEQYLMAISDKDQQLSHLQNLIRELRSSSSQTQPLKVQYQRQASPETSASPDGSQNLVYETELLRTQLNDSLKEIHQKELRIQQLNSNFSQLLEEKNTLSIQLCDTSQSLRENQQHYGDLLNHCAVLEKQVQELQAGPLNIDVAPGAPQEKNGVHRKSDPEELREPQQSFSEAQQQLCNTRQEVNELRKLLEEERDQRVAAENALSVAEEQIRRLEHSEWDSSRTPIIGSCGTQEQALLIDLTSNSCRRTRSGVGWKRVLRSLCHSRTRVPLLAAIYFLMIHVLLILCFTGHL
UniProt Q86WP2: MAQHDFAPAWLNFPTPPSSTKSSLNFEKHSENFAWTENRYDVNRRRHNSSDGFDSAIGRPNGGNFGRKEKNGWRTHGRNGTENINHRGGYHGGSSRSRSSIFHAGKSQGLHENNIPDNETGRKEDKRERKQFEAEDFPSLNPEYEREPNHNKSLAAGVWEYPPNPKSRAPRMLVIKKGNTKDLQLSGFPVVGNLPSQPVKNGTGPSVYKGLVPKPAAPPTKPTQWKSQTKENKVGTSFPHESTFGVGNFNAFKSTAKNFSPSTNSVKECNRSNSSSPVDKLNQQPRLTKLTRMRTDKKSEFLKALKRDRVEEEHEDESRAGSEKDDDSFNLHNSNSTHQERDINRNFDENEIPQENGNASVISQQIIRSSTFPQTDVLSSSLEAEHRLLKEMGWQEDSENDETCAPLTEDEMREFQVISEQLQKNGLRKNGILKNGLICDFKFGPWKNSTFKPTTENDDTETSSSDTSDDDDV
UniProt P17900: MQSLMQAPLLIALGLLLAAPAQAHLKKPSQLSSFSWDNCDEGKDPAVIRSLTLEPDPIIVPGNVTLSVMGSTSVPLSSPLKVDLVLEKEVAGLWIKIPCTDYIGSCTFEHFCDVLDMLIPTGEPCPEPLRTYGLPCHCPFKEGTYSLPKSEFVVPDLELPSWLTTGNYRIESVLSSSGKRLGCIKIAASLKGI
UniProt Q5T7V8: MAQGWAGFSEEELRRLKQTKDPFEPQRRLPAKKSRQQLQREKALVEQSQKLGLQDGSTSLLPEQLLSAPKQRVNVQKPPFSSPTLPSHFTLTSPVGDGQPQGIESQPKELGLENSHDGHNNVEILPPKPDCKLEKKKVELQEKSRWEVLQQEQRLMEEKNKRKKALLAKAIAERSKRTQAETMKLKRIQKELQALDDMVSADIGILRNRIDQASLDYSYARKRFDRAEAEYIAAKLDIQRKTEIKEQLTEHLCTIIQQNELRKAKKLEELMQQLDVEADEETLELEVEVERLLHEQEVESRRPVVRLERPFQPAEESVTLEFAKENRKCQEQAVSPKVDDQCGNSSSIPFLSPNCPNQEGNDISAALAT
UniProt P43304: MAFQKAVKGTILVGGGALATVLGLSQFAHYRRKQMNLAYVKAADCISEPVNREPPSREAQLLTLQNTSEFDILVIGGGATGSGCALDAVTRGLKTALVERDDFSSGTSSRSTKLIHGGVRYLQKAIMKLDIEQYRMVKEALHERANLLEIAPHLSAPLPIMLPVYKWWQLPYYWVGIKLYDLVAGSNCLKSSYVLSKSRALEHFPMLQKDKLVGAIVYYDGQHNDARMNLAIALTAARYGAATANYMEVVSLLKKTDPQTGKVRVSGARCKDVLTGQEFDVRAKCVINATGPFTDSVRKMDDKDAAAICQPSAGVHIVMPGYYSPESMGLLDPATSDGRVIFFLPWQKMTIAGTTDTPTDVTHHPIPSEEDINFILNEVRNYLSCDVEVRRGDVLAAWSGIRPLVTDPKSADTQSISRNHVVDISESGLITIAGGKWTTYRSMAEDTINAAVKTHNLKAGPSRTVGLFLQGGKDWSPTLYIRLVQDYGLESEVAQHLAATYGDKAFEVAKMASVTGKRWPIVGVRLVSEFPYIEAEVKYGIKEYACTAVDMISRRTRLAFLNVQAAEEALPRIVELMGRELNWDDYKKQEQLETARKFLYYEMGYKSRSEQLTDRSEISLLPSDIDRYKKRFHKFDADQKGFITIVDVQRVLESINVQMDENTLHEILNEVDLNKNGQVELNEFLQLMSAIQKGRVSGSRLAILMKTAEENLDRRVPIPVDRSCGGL
UniProt Q9Y3E0: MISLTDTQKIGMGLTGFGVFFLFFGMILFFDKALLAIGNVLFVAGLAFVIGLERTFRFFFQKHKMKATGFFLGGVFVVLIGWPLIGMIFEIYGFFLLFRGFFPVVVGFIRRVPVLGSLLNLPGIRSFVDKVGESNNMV
UniProt Q5VW38: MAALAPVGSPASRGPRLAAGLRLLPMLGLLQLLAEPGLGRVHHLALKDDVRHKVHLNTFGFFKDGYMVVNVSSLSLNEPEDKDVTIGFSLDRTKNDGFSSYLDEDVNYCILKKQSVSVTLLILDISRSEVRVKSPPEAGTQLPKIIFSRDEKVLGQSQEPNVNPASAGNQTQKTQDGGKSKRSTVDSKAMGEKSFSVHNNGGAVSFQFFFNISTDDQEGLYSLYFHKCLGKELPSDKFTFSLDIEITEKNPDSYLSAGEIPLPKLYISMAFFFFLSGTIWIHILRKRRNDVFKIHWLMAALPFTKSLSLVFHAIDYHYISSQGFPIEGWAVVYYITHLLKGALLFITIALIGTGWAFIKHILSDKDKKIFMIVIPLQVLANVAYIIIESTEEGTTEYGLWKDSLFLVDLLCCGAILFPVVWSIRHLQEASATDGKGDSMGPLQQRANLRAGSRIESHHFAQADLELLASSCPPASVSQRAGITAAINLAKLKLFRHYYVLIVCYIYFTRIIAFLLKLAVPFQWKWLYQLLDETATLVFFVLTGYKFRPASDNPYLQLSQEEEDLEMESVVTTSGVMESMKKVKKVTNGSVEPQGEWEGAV
UniProt P63218: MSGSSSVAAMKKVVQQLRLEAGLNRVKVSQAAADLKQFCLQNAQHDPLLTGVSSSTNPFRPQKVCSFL
UniProt Q9NQ84: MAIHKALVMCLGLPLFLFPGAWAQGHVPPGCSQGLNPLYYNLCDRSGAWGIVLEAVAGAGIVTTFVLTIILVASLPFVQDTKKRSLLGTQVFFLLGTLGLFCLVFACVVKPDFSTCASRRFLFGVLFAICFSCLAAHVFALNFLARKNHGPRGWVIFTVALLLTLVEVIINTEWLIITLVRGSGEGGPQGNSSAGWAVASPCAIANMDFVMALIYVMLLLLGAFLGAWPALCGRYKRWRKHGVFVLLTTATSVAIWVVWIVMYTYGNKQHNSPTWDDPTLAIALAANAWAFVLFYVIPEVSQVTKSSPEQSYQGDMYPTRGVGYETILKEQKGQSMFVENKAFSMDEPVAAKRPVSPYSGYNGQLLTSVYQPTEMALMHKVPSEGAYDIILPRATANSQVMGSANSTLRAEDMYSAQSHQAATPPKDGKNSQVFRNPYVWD

[2] = compound: CS(=O)(=O)N1CCN(Cc2cc3nc(-c4cccc5[nH]ncc45)nc(N4CCOCC4)c3s2)CC1 [pictilisib]
Summary of the method: as §1

[3] = compound: C[C@@H](Oc1cc(-c2cnn(C3CCNCC3)c2)cnc1N)c1c(Cl)ccc(F)c1Cl [crizotinib]
Summary of the method: as §1

[4] = compound: C[C@H](C1=CC=C(C=C1)C(=O)NC2=C3C=CNC3=NC=C2)N
Summary of the method: as §1

[5] = compound: C[C@H](Nc1ncnc2nc[nH]c12)c1cc2cccc(Cl)c2c(=O)n1-c1ccccc1 [duvelisib]
Summary of the method: as §1

[6] = compound: Cc1cc(Nc2cc(CN3CCOCC3)c3nc(C)c(Cc4ccc(Cl)cc4F)n3n2)n[nH]1 [gandotinib]
Summary of the method: as §1

[7] = compound: Cc1cc(Nc2cc(N3CCN(C)CC3)nc(Sc3ccc(NC(=O)C4CC4)cc3)n2)n[nH]1 [tozasertib]
Summary of the method: as §1

[8] = compound: Cc1ccc(-n2nc(C(C)(C)C)cc2NC(=O)Nc2ccc(OCCN3CCOCC3)c3ccccc23)cc1 [doramapimod]
Summary of the method: as §1

[9] = compound: Cc1ccc(NC(=O)c2ccc(CN3CC[C@H](N(C)C)C3)c(C(F)(F)F)c2)cc1Nc1nccc(-c2cncnc2)n1 [bafetinib]
Summary of the method: as §1

[10] = compound: Cc1cccc(CC(=O)N2CCc3c2ccc(-c2cn(C)c4ncnc(N)c24)c3F)n1
Summary of the method: as §1

[11] = compound: Cc1cn(-c2cc(NC(=O)c3ccc(C)c(Nc4nccc(-c5cccnc5)n4)c3)cc(C(F)(F)F)c2)cn1 [nilotinib]
Summary of the method: as §1

[12] = compound: Cc1nc(Nc2n[nH]c3c2CN(C(=O)N[C@H](CN(C)C)c2ccccc2)C3(C)C)c2sccc2n1
Summary of the method: as §1

[13] = compound: Cc1nc(Nc2ncc(C(=O)Nc3c(C)cccc3Cl)s2)cc(N2CCN(CCO)CC2)n1 [dasatinib]
Summary of the method: as §1

[14] = compound: Cc1ncc(-c2ccnc(Nc3ccc(S(C)(=O)=O)cc3)n2)n1C(C)C
Summary of the method: as §1

[15] = compound: Cn1cc(-c2ccc3c(c2)CCN3C(=O)Cc2cccc(C(F)(F)F)c2)c2c(N)ncnc21
Summary of the method: as §1

[16] = compound: Cn1cc(CNCC2CCN(c3ncc(C(=O)NO)cn3)CC2)c2ccccc21 [quisinostat]
Summary of the method: as §1

[17] = compound: Cn1cncc1[C@@](N)(c1ccc(Cl)cc1)c1ccc2c(c1)c(-c1cccc(Cl)c1)cc(=O)n2C [tipifarnib]
Summary of the method: as §1

[18] = compound: NC(=O)Nc1cc(-c2cccc(F)c2)sc1C(=O)N[C@H]1CCCNC1
Summary of the method: as §1

[19] = compound: NC(=O)c1cnc(N[C@@H]2CCCC[C@@H]2N)nc1Nc1cccc(-n2nccn2)c1
Summary of the method: as §1

[20] = compound: NC1(c2ccc(-c3nc4ccn5c(=O)[nH]nc5c4cc3-c3ccccc3)cc2)CCC1
Summary of the method: as §1

Measured: log2 fold change

GIGYF2 (UniProt Q6Y7W6)
inactive: [1] 0.013 | [2] 0.057 | [3] 0.024 | [4] 0.03 | [5] -0.033 | [6] 0.05 | [7] -0.006 | [8] -0.086 | [9] -0.043 | [10] -0.009 | [11] 0.004 | [12] -0.03 | [13] 0.006 | [14] 0.007 | [15] 0.024 | [16] -0.011 | [17] -0.09 | [18] 0.026 | [19] 0.007 | [20] -0.04

GPS1 (UniProt A8K070)
inactive: [1] 0.012 | [2] -0.049 | [3] 0.065 | [4] -0.003 | [5] 0.017 | [6] -0.051 | [7] -0.021 | [8] -0.04 | [9] -0.039 | [10] -0.028 | [11] 0.109 | [12] 0.06 | [13] 0.044 | [14] 0.105 | [15] 0.009 | [16] 0.07 | [17] -0.042 | [18] -0.005 | [19] -0.008 | [20] -0.002

GOLGB1 (UniProt Q14789)
inactive: [1] -0.007 | [2] -0.028 | [3] -0.053 | [4] -0.024 | [5] -0.014 | [6] -0.008 | [7] 0.008 | [8] 0.024 | [9] -0.032 | [10] 0.043 | [11] -0.007 | [12] 0.024 | [13] -0.017 | [14] 0.006 | [15] 0.027 | [16] -0.022 | [17] -0.015 | [18] 0.002 | [19] 0.017 | [20] -0.019

GPBP1 isoform 2 (UniProt Q86WP2)
inactive: [1] -0.066 | [2] 0.034 | [3] 0.042 | [4] -0.024 | [5] -0.024 | [6] 0.081 | [7] -0.012 | [8] 0.076 | [9] 0.011 | [10] 0.041 | [11] -0.237 | [12] 0.18 | [13] 0.044 | [14] -0.119 | [15] 0.002 | [16] -0.059 | [17] -0.176 | [18] 0.022 | [19] 0.006 | [20] 0.077

GM2A (UniProt P17900)
inactive: [1] 0.085 | [2] 0.204 | [3] 0.047 | [4] 0.068 | [5] -0.027 | [6] 0.421 | [7] 0.082 | [8] -0.03 | [9] 0.057 | [10] -0.059 | [11] -0.006 | [12] -0.014 | [13] 0.051 | [14] 0.241 | [15] 0.052 | [16] -0.006 | [17] -0.037 | [18] -0.033 | [19] 0.018 | [20] 0.016

GORAB (UniProt Q5T7V8)
inactive: [1] 0.004 | [2] 0.016 | [3] -0.021 | [4] 0.038 | [5] -0.065 | [6] 0.048 | [7] -0.052 | [8] 0.009 | [9] 0.121 | [10] -0.063 | [11] -0.096 | [12] 0.044 | [13] -0.004 | [14] 0.046 | [15] 0.032 | [16] 0.038 | [17] -0.057 | [18] -0.035 | [19] -0.02 | [20] 0.021

GPD2 (UniProt P43304)
inactive: [1] 0.012 | [2] -0.034 | [3] 0.003 | [4] 0.024 | [5] 0.002 | [6] 0.007 | [7] 0.005 | [8] 0.011 | [9] 0.003 | [10] 0.01 | [11] 0.051 | [12] -0.001 | [13] 0.025 | [14] 0.001 | [15] 0.036 | [16] 0.012 | [17] -0.004 | [18] -0.027 | [19] -0.011 | [20] -0.006

GOLT1B (UniProt Q9Y3E0)
inactive: [1] -0.007 | [2] 0.004 | [3] -0.015 | [4] -0.02 | [5] 0.021 | [6] 0.039 | [7] -0.006 | [8] -0.029 | [9] 0.062 | [10] 0.009 | [11] -0.005 | [12] 0.077 | [13] 0.013 | [14] 0.085 | [15] 0.056 | [16] -0.038 | [17] -0.043 | [18] 0.046 | [19] -0.014 | [20] -0.047

GNL2 (UniProt Q13823)
inactive: [1] 0.028 | [2] -0.017 | [3] -0.031 | [4] 0.031 | [5] 0.046 | [6] -0.047 | [7] -0.023 | [8] 0.018 | [9] -0.075 | [10] -0.012 | [11] -0.001 | [12] 0.017 | [13] 0.029 | [14] -0.04 | [15] 0.003 | [16] -0.025 | [17] -0.007 | [18] 0.039 | [19] 0.053 | [20] -0.01

GPR107 isoform 2 (UniProt Q5VW38)
inactive: [1] -0.005 | [2] -0.032 | [3] -0.022 | [4] -0.066 | [5] -0.045 | [6] 0.071 | [7] -0.037 | [8] 0.007 | [9] -0.054 | [10] 0.025 | [11] -0.025 | [12] 0.05 | [13] 0.046 | [14] -0.027 | [15] 0.028 | [16] -0.024 | [17] -0.066 | [18] 0.032 | [19] -0.02 | [20] -0.081

GNG5 (UniProt P63218)
inactive: [1] 0.019 | [2] 0.019 | [3] -0.007 | [4] 0.158 | [5] -0.003 | [6] -0.048 | [7] 0.006 | [8] 0.058 | [9] -0.002 | [10] -0.084 | [11] 0.084 | [12] -0.051 | [13] 0.051 | [14] 0.133 | [15] 0.001 | [16] 0.064 | [17] -0.07 | [18] -0.084 | [19] -0.023 | [20] 0.049

GPRC5C isoform 2 (UniProt Q9NQ84)
inactive: [4] -0.046 | [6] -0.132 | [10] 0.036
